Test results from patent US12723059 (dated 2026).

Assay: peptide synthesis
Details: cyclisation step

Ac-CQWG[Aha]KAS[Aha]FSEC-NH2
cyclisation yield (run 1): 18% | cyclisation yield (run 2): 28%
